Test [1] deals with damage-specific DNA-binding protein 1 (human (endogenous in MCF-7)) (UniProt Q16531). Kind of test: co-IP; anti-DDB1, anti-DDB2 or IgG on magnetic beads mixed with hypoxic MCF-7 cell lysates at 4 °C overnight; western blot; cells with circPFKFB4 overexpression or knockdown.
The target is the same in test [2]. In words: co-IP; two-step IP combined with western blot, under hypoxia; circPFKFB4 RNA also in the complex. (In general: A western blot detects proteins with antibodies after separation by electrophoresis.)
The target of test [3] is damage-specific DNA-binding protein 2 (human (endogenous in MCF-7)) (UniProt Q92466). In words: co-IP; hypoxic BC cells transfected with circPFKFB4 overexpression plasmid or circPFKFB4 knockdown; antibody-coated magnetic beads with cell lysates at 4 °C overnight; western blot.

The chains behind the UniProt entries cited, without tags or fusion partners.
UniProt Q16531: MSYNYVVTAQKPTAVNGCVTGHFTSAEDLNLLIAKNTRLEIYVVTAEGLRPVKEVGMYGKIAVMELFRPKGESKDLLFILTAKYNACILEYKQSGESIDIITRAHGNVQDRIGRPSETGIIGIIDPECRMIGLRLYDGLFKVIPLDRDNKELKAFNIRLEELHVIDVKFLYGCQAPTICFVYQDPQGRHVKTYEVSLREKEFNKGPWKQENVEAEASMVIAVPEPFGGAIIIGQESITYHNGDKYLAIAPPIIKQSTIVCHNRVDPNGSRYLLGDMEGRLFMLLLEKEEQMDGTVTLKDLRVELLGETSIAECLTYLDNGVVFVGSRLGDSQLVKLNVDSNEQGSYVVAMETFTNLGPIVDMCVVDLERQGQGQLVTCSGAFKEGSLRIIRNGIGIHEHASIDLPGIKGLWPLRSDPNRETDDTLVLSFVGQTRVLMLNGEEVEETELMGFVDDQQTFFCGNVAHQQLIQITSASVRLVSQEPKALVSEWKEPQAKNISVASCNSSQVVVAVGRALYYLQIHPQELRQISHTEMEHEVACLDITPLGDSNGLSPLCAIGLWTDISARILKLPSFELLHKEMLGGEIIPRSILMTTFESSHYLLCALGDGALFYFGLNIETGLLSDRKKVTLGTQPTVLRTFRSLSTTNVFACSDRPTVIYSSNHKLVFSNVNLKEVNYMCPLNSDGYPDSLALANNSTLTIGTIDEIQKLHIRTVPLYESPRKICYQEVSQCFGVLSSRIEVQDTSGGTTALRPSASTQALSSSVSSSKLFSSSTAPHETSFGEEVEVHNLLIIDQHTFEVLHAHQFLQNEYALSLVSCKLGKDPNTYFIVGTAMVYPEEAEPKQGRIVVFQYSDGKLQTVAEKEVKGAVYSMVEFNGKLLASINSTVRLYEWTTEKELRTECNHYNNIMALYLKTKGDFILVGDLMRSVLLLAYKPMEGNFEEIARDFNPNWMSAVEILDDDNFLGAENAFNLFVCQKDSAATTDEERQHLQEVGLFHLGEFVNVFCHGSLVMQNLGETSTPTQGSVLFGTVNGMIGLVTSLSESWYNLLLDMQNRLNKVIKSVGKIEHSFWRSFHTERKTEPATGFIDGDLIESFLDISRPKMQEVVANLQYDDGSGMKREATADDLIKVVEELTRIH
UniProt Q92466: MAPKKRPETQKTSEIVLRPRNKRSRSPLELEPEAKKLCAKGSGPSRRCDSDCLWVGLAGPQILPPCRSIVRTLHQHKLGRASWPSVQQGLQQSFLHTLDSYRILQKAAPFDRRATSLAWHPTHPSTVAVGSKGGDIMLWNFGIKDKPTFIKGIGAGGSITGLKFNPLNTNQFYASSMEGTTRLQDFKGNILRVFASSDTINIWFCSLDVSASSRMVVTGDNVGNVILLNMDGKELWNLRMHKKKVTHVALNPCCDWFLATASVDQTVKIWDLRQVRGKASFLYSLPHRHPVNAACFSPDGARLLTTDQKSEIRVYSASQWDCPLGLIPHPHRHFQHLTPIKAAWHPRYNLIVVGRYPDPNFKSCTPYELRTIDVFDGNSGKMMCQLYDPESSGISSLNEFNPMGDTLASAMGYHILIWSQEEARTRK
UniProt P46527: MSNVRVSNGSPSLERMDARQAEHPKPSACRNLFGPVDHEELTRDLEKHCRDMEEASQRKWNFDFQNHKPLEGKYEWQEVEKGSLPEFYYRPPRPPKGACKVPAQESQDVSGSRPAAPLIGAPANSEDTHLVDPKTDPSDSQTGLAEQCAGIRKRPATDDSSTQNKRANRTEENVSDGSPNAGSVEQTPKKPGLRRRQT

No constants are given. Whether binding was seen depends on the method and setting. Binding seen in cells or lysates may run through a third protein. Some entries that bind do so weakly or less than the wild type.

For “damage-specific DNA-binding protein 2 (from UniProt Q92466 1-427)”, the binding entry in test [1] and in test [2] was “binds” each time.
For p27 (from UniProt P46527 1-198), the binding result in test [3] is on record as “binds”.

For the origin of these results see paper PMC9254479.
